Some results were stated once for a whole list of compounds, not compound by compound. For at least one compound, name, drawing or mass did not settle the structure.
System: J774.16 murine macrophages
Test: Trypan blue cell viability counting
Type: cell-based
Conditions: 64 μg/ml, 48 hours
Procedure: J774.16 cells were grown in J7 medium from a fresh passage in a 1:4 dilution of 70 to 80% confluent cells. The cells were allowed to adhere in 6-well plates overnight. The medium was replaced, and drugs were added to desired concentrations in a total volume of 5 ml/well. A media control, untreated control, a killing control of Triton X-100, and a vehicle control were always included. After 48 hours treatment, medium was removed, and fresh media and Trypan blue were added 1:1 in a final volume of 400 μl. Cells, 100 to 200, from two areas of each well were counted and the data averaged and normalized against untreated cells. The vehicle control served as the 0.0-μg/ml value. At least three biological replicates were included for each drug at each concentration.

## Cc1sc(NC(=O)C2C3C=CC(C3)C2C(=O)O)nc1-c1ccc(CC(C)C)cc1 (stereo not shown) [PKZ18-53]
  cell viability: 82 to 98%
